# Measurements reported in PubChem BioAssay AID493014 (National Center for Advancing Translational Sciences (NCATS), 2011).
# The list shows a part of the results. Further columns of the screen follow, without active or inactive calls. Compounds called inactive in the main read-out are mostly missing here. The note in brackets gives the kind of curve behind each potency; many fits are weak.
# Assay: qHTS Assay to Find Inhibitors of Chronic Active B-Cell Receptor Signaling
# Details: ABC-DLBCL IkBa-CBG/CBR reporter, luminescence ratio (green luciferase fused to IkBa over red control in TMD8 lymphoma cells), 4 h
# Procedure, shortened: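 Cell line TMD8 (human ABC DLBCL), stably expressing tet-inducible CBG68-IkBa fusion and CBR; IMDM/0.5% FBS; cpd up to 46 uM; dox induction, 4 h, 37C/5% CO2; dual luminescence; green/red ratio; MG132 control.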
# [1] = measured here: IkBa-CBG green luminescence
# [2] = measured here: CBR red luminescence, cell number
SMILES,AC50 [1],AC50 [2]
O=C(Nc1cccc(S(=O)(=O)N2CCOCC2)c1)c1cn(-c2ccccc2)nc1-c1ccc(F)cc1,"2.91 µM [falling, partial curve, poor fit]",
CCN(CC)c1ccc(S(=O)(=O)N2CCOCC2)cc1NC(=O)CSc1nncs1,,"20.6 µM [rising, single point]"
Cc1cc(C)c(O)c(-c2cc(C(=O)Nc3cccnc3)[nH]n2)c1,,"14.1 µM [falling, partial curve, poor fit]"
Cc1nc2scc(C)n2c(=O)c1S(=O)(=O)N1CCN(c2cccc(C(F)(F)F)c2)CC1,,"4.47 µM [rising, full curve, poor fit]"
CCCCNC(=O)c1ccccc1NC(=O)c1ccccc1N(C)S(C)(=O)=O,,"0.116 µM [falling, full curve, poor fit]"
CCOC(=O)CC(=O)CSc1ncnc2c1nnn2-c1ccc(F)cc1,,"35.5 µM [falling, single point]"
CCOC(=O)c1c(NC(=O)CSc2nnc(Cc3ccccc3)o2)sc(C)c1C,,"18.4 µM [falling, single point]"
Cc1cccc(NC(=O)CSc2nc3[nH]ncc3c(=O)[nH]2)c1C,,"10.3 µM [falling, partial curve, poor fit]"
O=C1Nc2ccccc2S/C1=C\C(=O)N1CCCC1,,"17.8 µM [falling, single point]"
O=C(NCCOc1ccccc1F)c1cc(F)c(F)cc1Cl,,"3.66 µM [rising, full curve, poor fit]"
OCCCNc1cc(-c2ccccc2)nc2cc(-c3ccc(F)cc3)nn12,,"1.12 µM [falling, full curve, poor fit]"
CCOc1cccc(OCCCOc2ccccc2)c1,,"13 µM [rising, partial curve, poor fit]"
Cc1cc(C)c(S(=O)(=O)N2CCN(C(=O)C3COc4ccccc4O3)CC2)c(C)c1 (stereo not drawn),,"2.59 µM [rising, full curve]"
CCC(CC)C(=O)c1c[nH]c(C(=O)NCCc2ccccn2)c1,,"12.6 µM [rising, partial curve]"
CCOc1ccccc1Nc1ncnc2c1cnn2-c1ccccc1,,"29.1 µM [falling, single point]"
Cc1ccc(OCC(=O)N2N=C(c3cccnc3)CC2(O)C(F)(F)F)cc1C (stereo not drawn),,"29.1 µM [falling, single point]"
CSC1=NC(C)(C)C=C(/C=C/c2ccc(Cl)cc2Cl)N1,,"10 µM [falling, partial curve]"
CCOC(=O)c1c(N)c2cc([N+](=O)[O-])cnc2n1C,"17.8 µM [rising, partial curve, poor fit]",
CC(=O)N1CC(=O)N=C1SCC(=O)Nc1nc(C)c(-c2ccccc2)s1,"11.2 µM [falling, partial curve]","1.58 µM [rising, partial curve, poor fit]"
CCCOc1ccc(-c2nc(=S)[nH][nH]2)cc1,,"4.61 µM [rising, full curve, poor fit]"
Cc1noc(C)c1C(=O)Nc1nc2ccccc2s1,,"14.6 µM [falling, single point]"
NC(=O)c1cccn1Cc1cccc(Cl)c1,,"6.51 µM [falling, single point]"

# Looked up by compound from the list above:
SMILES,AC50 [1],AC50 [2]
CCN(CC)c1ccc(S(=O)(=O)N2CCOCC2)cc1NC(=O)CSc1nncs1,,"20.6 µM [rising, single point]"
O=C(Nc1cccc(S(=O)(=O)N2CCOCC2)c1)c1cn(-c2ccccc2)nc1-c1ccc(F)cc1,"2.91 µM [falling, partial curve, poor fit]",
O=C(NCCOc1ccccc1F)c1cc(F)c(F)cc1Cl,,"3.66 µM [rising, full curve, poor fit]"

# Additional records follow.

SMILES,AC50 [1],AC50 [2]
CC(C(=O)Nc1ccc2c(c1)OCCO2)N(C)Cc1c(F)cccc1Cl (stereo not drawn),,"22.4 µM [rising, single point]"
Cc1cc(N2C(=O)C(O)=C(C(=O)c3ccc(C)o3)C2c2cccc(Oc3ccccc3)c2)no1 (stereo not drawn),,"22.4 µM [falling, single point]"
Cc1ccccc1N=C1NN=C(c2ccccc2F)CS1,,"23.1 µM [falling, single point]"
CN(C)S(=O)(=O)c1ccc(NC(=O)CCCNC(=O)c2ccc(Cl)cc2)cc1,,"12.6 µM [falling, single point]"
COc1ccc(C(=O)/C=C2/c3ccccc3CC(C)(C)N2C)cc1,"5.01 µM [falling, partial curve]","22.4 µM [rising, partial curve, poor fit]"
COC(=O)CSc1nnc(C2COc3ccccc3O2)n1-c1ccccc1 (stereo not drawn),,"20.6 µM [falling, partial curve, poor fit]"
COc1ccccc1CNC(=O)CCC1N=C2c3ccccc3N=C(SCc3ccc(C)cc3)N2C1=O (stereo not drawn),"35.5 µM [rising, partial curve, poor fit]","35.5 µM [falling, single point]"
COC(=O)c1c(NC(=O)Nc2ccc(Cl)cc2)sc(C)c1C,,"8.2 µM [falling, partial curve, poor fit]"
Cc1ccccc1NS(=O)(=O)c1cc2c3c(c1)CC(=O)N3CCC2,,"1.26 µM [rising, full curve, poor fit]"
Cc1ccc(-c2cc(N)n[nH]2)cc1,,"18.4 µM [falling, single point]"
Cc1ccc(C2C(C#N)=C(N)SC(N)=C2C#N)cc1,,"0.631 µM [rising, full curve, poor fit]"
O=c1cc(CSc2ccccc2)nc(-c2ccccc2)[nH]1,,"12.6 µM [falling, single point]"
O=C(C1CCN(S(=O)(=O)c2ccccc2F)CC1)N1CCc2ccccc21,,"29.1 µM [rising, single point]"
COc1ccc2[nH]c(=O)c(CN(Cc3nnnn3Cc3ccco3)C3CCCCC3)cc2c1,,"17.8 µM [falling, single point]"
Cc1cccnc1NC(=O)CCCc1c[nH]c2ccccc12,,"4.47 µM [falling, partial curve, poor fit]"
Clc1ccccc1-c1nnc2n1CCCCC2,,"2.51 µM [falling, full curve, poor fit]"
CCN(CC)CCCN(C(=O)c1cccs1)c1nc(-c2ccc(OC)cc2)cs1,,"15.8 µM [falling, single point]"
COc1ccc(-c2csc(NC(=O)c3cc(C)on3)c2C#N)cc1OC,,"23.1 µM [rising, partial curve, poor fit]"
CC(C)(C)NS(=O)(=O)c1ccc(N2C(=O)c3ccccc3C2=O)cc1,,"0.58 µM [rising, full curve, poor fit]"
Cc1ccccc1CNC(=O)CCC(=O)N1CCOc2ccc(Cl)cc21,,"35.5 µM [falling, partial curve, poor fit]"
CCC(C)Sc1cccc(-c2nc3cnccn3c2NC2CCCCC2)c1 (stereo not drawn),,"20.6 µM [falling, single point]"
COc1cc(OC)c2cc(C(=O)N/N=C/c3cccc(OC)c3O)[nH]c2c1,,"3.16 µM [falling, partial curve, poor fit]"

SMILES,AC50 [1],AC50 [2]
COc1ccc2nc(N(Cc3cccnc3)C(=O)C3CCCCC3)sc2c1,,"1.58 µM [rising, full curve, poor fit]"
O=C(CCCC(=O)N(CC(=O)NC1CCCCC1)c1ccc(F)cc1)Nc1ccccn1,,"2.82 µM [falling, full curve]"
Fc1ccc(/C=N/NC2=Nc3cccc4cccc2c34)cc1,"25.9 µM [falling, partial curve, poor fit]",
CSCC(O)Cn1[nH]c(=O)c2cc(Cl)c(Cl)cc2c1=O (stereo not drawn),,"11.2 µM [falling, single point]"
O=C(Nc1ccc(Cl)cc1C(=O)NCc1cccnc1)c1ccc(Cl)cc1Cl,,"14.6 µM [falling, single point]"
O=C(CCSc1ccccc1Cl)Nc1cccc([N+](=O)[O-])c1,,"2.06 µM [rising, partial curve, poor fit]"
CCOc1ccc(OCC)c(S(=O)(=O)NCCCN2CCOCC2)c1,"20.6 µM [falling, single point]","18.4 µM [rising, single point]"
O=C(NCc1nc(-c2ccc(C(F)(F)F)cc2)no1)c1cccs1,,"35.5 µM [rising, single point]"
O=C(CSC1=NCCN1)NC1CCCCCC1,,"10.3 µM [falling, partial curve]"
CCOC(=O)c1c(NC(=O)C2=C(C)NC(=S)NC2c2ccc(F)cc2)sc(C)c1C (stereo not drawn),,"16.4 µM [falling, single point]"
COc1ccc(OC)c(NC(=O)c2cc(OC(C)=O)cc(C(=O)Nc3cc(OC)ccc3OC)c2)c1,,"12.6 µM [falling, partial curve]"
Cc1cccc(OCC(=O)NNC(=O)c2cc3ccccc3oc2=O)c1,,"29.1 µM [rising, single point]"
COc1ccc(Nc2nc(N3CCN(S(C)(=O)=O)CC3)nc3ccccc23)c(OC)c1,,"14.1 µM [rising, partial curve, poor fit]"
O=C(Nc1nnc(-c2cccnc2)s1)c1cccs1,,"0.708 µM [falling, full curve]"
O=C(O)CCSSCCC(=O)O,,"1.16 µM [falling, partial curve, poor fit]"
Cc1noc(C)c1CSc1ncnc2sc3c(c12)CCC(C)C3 (stereo not drawn),,"11.6 µM [rising, partial curve, poor fit]"
CC(=O)Nc1ccc(S(=O)(=O)C(C#N)c2nc3ccccc3nc2NCCCO)cc1 (stereo not drawn),,"1 µM [rising, partial curve, poor fit]"
CCC(C)[C@H](NC(=O)N1CCCCCC1)C(=O)O (stereo partly drawn),,"6.31 µM [falling, full curve]"
Cc1cc2ncc(-c3ccc(Cl)cc3)cn2n1,,"0.794 µM [rising, partial curve, poor fit]"
CCN1C(=O)c2cccc3c(NC(=O)c4ccc(S(=O)(=O)N(C)C)cc4)ccc1c23,"29.1 µM [falling, single point]",
